Article PMC8245780
Results are given in words; binding and its absence hold for the method and conditions named. Binding seen in cells or lysates may run through a third protein. Some entries that bind do so weakly or less than the wild type.

By UniProt entry, the sequences of proteins in these tests, tags left out. Residues count along the entry.
UniProt Q15843, residues 1-76: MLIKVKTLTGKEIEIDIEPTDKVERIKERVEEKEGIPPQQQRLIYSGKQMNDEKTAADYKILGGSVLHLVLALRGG
UniProt Q9UBN7: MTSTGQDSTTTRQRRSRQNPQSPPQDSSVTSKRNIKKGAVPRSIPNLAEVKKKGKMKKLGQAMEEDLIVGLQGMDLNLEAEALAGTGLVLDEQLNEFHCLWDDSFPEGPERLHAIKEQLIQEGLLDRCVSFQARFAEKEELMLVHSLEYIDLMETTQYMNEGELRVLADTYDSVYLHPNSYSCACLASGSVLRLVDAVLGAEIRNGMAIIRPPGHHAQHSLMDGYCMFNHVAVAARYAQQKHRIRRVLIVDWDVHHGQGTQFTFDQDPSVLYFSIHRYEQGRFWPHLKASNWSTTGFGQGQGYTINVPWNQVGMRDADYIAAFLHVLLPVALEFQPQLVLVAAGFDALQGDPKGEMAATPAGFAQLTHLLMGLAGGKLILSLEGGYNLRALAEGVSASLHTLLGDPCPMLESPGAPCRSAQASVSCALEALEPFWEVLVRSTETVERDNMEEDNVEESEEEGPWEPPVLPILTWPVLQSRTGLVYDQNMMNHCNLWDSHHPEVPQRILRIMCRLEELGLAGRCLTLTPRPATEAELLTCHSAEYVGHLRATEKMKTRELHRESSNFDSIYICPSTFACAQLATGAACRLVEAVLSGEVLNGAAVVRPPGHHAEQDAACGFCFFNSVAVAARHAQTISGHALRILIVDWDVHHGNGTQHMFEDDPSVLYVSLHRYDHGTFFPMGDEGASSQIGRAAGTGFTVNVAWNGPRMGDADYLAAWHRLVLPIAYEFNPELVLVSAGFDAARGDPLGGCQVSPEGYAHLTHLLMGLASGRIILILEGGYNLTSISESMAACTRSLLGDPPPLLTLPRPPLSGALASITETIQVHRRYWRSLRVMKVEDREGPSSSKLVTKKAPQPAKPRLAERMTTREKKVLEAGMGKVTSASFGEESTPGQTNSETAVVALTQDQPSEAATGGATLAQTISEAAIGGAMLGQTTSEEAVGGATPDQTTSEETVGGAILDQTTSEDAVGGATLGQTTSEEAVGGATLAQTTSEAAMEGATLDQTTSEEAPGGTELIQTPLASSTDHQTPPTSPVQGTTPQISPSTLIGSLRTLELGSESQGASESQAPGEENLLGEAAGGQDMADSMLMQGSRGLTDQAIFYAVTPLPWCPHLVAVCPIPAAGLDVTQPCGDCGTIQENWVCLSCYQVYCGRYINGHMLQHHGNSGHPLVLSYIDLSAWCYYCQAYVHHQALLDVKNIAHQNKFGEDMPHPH

Biological target: HA-tagged NEDD8 (UniProt Q15843)
Experiment: co-IP; HEK293 cells co-expressing FLAG-HDAC6 (full length or ΔBUZ), HA-NEDD8 and UBC12; lysed in modified RIPA buffer (0.3% NP40, 1% sodium deoxycholate, 150 mM NaCl, pH 7.5); HA-NEDD8 immunoprecipitated with anti-HA overnight at 4°C, isotype IgG as control; immunoblot with FLAG antibody

binding: binds
Substance: FLAG epitope-tagged full-length HDAC6 (histone deacetylase 6) (from UniProt Q9UBN7 1-1215) (enzyme)
